Measurements published in patent US20110070246A1 (F HOFFMANN LAROCHE, published 2011).
These are yes or no findings as the source states them, for the method shown. Some entries that bind do so weakly or less than the wild type.

Assays:
[1] = molecular target: T1, Soluble extracellular domain (ECD) of human CDCP1 (human) (UniProt Q9H5V8); assay: Biacore competition, competitor immobilized CUB4
T1 sequence: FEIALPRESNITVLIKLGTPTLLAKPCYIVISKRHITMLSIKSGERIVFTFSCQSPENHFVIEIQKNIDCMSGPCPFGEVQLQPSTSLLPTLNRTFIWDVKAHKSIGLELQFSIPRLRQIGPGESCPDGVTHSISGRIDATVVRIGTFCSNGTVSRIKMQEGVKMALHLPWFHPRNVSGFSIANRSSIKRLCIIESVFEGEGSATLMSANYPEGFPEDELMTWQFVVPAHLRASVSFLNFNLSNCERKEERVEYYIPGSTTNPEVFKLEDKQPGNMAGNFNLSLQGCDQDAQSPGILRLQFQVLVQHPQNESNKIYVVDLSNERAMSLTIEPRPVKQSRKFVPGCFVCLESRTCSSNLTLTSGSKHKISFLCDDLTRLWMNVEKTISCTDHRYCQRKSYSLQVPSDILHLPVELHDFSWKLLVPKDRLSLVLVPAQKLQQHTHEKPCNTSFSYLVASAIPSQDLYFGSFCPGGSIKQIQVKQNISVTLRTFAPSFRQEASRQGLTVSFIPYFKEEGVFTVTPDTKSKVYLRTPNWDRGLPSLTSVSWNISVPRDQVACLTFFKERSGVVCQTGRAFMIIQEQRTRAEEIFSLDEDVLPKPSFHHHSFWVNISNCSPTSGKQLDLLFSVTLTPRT

[2] = molecular target: T1, Soluble extracellular domain (ECD) of human CDCP1 (human); assay: Biacore sensorgram, immobilized CUB4, ECD of CDCP1
[3] = molecular target: T1, Soluble extracellular domain (ECD) of human CDCP1 (human); assay: ELISA, SBP-tagged construct captured on streptavidin plate
[4] = molecular target: T1, Soluble extracellular domain (ECD) of human CDCP1 (human); assay: Biacore sandwich on antigen captured by Mab CUB1 or Mab CUB3 (data not shown)

Measured: binding

B1: Mab CDCP1-015 (antibody, V domains shown)
VH: QVHLKQSGPGLVQPSQSLSITCTVSGFSLTNFGLHWVRQSPGKGLEWLGVIWSGGVTDYNAAFISRLSISKDNSKSQVFFKMNSLQPNDTAIYYCARNYDHDYSMDYWGQGISVSVSS
VL: DVVLTQTPLSLPVIIGDQASISCKSTKSLLNSAGFTYLGWYLQKPGQSPQLLIYLVSNRFSGVPDRFSGSGSGTDFTLKISRVEAEDLGVYFCFQSSYLPLTFGSGTKLEIK
notes: also called CDCP1-0015; Murine CDCP1-015
binds: all assays above
